# In patent US20220265694A1, “COMPOSITIONS AND METHODS FOR TREATING AN INFECTION” (CMPD LICENSING, LLC, priority 2016, published 2022):
# Test system: Mycoplasma pneumoniae
# Assay: Expected efficacy of antibiotic agents
# Conditions: expected efficacy against Mycoplasma pneumoniae; Gram: n/a
structure (smiles),measurement,value
O=C(O)c1cn(C2CC2)c2cc(N3CCNCC3)c(F)cc2c1=O [Ciprofloxacin],Efficacy,yes
